Test results taken from PubChem BioAssay AID602313 (National Center for Advancing Translational Sciences (NCATS), 2012).
Out of some 390,000 compounds screened, about 760 (0.19%) were called active. Inconclusive results, whose numbers are uncertain, are shown with a selection of clear calls. Calls follow the shape of the dose curve; as a rule, active = well fitted inhibition curve with a large enough effect; inconclusive = small, poorly fitted or top-dose-only effect; inactive = flat fitted curve, though single readings scatter. Potencies beside an inconclusive call are fits to weak or partial responses and may not hold up.

Test: qHTS for Inhibitors of Vif-A3F Interactions: qHTS; also: nearly all actives have a fitted effect of over 65% in size
Settings: HeLa A3F-eYFP + Vif (tagged APOBEC3F with the HIV-1 protein that degrades it), YFP fluorescence increase; series mostly up to 46.1 µM
In short: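 HeLa cells stably expressing Vif plus C-terminally eYFP-tagged A3F were seeded, incubated overnight at 37 deg C, dosed with compound, incubated overnight again at 37 deg C. Yellow fluorescence (Ex 488/Em 500-530) reported blocked Vif-mediated A3F-eYFP degradation.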
Potency is read from the fitted curve at half-maximal effect.

| SMILES | Potency |
| --- | --- |
| CCOC(=O)CNC(=S)N(Cc1ccc(C)cc1)Cc1ccc(C)o1 | inconclusive: 22.4 µM [inhibitor, single point] |
| CCOC(=O)N1CCN(C(=O)c2ccc(Cn3c(=S)[nH]c4ccc(Br)cc4c3=O)cc2)CC1 | inactive |
| N#Cc1nc(Cc2ccccc2)oc1NCCCn1ccnc1 | inactive |
| Cc1ccc(C(=O)N(CCC2=CCCCC2)c2c(N)n(Cc3ccccc3)c(=O)[nH]c2=O)o1 | inactive |
| Cc1ccccc1C(=O)NC(=S)NCCC1=CCCCC1 | inactive |
| C[C@H](CO)N1C[C@H](C)[C@@H](CN(C)S(=O)(=O)c2ccccc2)Oc2c(NC(=O)NC3CCCCC3)cccc2C1=O | inactive |
| COc1ccc(NC(=O)CCC(=O)c2cccs2)cc1Cl | inactive |
| CCCC(=O)NC(=S)Nc1ccc(S(=O)(=O)Nc2ccc(OCC)cc2)cc1 | inconclusive: 35.5 µM [inhibitor, partial curve, poor fit] |
| N#Cc1ncccc1CCc1cccc(Cl)c1 | inconclusive: 3.98 µM [inhibitor, single point] |
| CCc1ccc(C2=CC(c3c(F)cccc3Cl)n3c(nc4ccccc43)N2)cc1 (stereo not drawn) | inconclusive: 17.8 µM [inhibitor, partial curve, poor fit] |
| CCCCn1c(=O)nc2n(-c3ccc(Br)cc3)c3ccccc3cc-2c1=O | inconclusive: 3.98 µM [inhibitor, single point] |
| Cc1c(N=Nc2ccc(O)cc2)c(=O)n(-c2ccccc2)n1C | inactive |
| COC(=O)Cn1c(=NC(=O)c2ccc(S(=O)(=O)N3CCOCC3)cc2)sc2cc(S(N)(=O)=O)ccc21 | inconclusive: 22.4 µM [inhibitor, single point] |
| CN1C(=O)/C(=C/c2ccccc2OCc2ccc(F)cc2)N(C)C1=S | active: 3.55 µM |
| Cn1cc(/C=C(\C#N)C(=O)Nc2ccccc2O)c2ccccc21 | inconclusive: 17.8 µM [inhibitor, partial curve, poor fit] |
| CCOC(=O)C1(Cc2ccccc2)CCN(Cc2ccc(C)s2)CC1 | inconclusive: 35.5 µM [inhibitor, single point] |
| N#Cc1c(C(F)(F)F)cc(-c2cccs2)nc1SCC(=O)Nc1cccc(Cl)c1 | inconclusive: 2.82 µM [inhibitor, full curve, poor fit] |
| COC(=O)C1=C(CSc2nc3ccccc3s2)NC(=O)NC1c1ccc(F)cc1 (stereo not drawn) | inactive |
| CN(C(=S)NC(=O)/C=C/c1ccc(F)cc1)C1CCCCC1 | inconclusive: 17.8 µM [inhibitor, partial curve, poor fit] |
| CC(C)CN(C(=O)c1cccc(S(=O)(=O)N2CCN(Cc3ccccc3)CC2)c1)C1CCS(=O)(=O)C1 (stereo not drawn) | inconclusive: 0.562 µM [inhibitor, full curve, poor fit] |
| CNC(=O)c1[nH]nc2c1CCc1ccccc1-2 | inconclusive: 12.6 µM [inhibitor, partial curve, poor fit] |
| COc1ccc(-c2nn3c(-c4ccccc4)nnc3s2)cc1 | inactive |

Some of the entries so far, as tab-separated lines:
SMILES	Potency
CCc1ccc(C2=CC(c3c(F)cccc3Cl)n3c(nc4ccccc43)N2)cc1 (stereo not drawn)	inconclusive: 17.8 µM [inhibitor, partial curve, poor fit]
CCCCn1c(=O)nc2n(-c3ccc(Br)cc3)c3ccccc3cc-2c1=O	inconclusive: 3.98 µM [inhibitor, single point]
Cc1c(N=Nc2ccc(O)cc2)c(=O)n(-c2ccccc2)n1C	inactive
COC(=O)Cn1c(=NC(=O)c2ccc(S(=O)(=O)N3CCOCC3)cc2)sc2cc(S(N)(=O)=O)ccc21	inconclusive: 22.4 µM [inhibitor, single point]
CN1C(=O)/C(=C/c2ccccc2OCc2ccc(F)cc2)N(C)C1=S	active: 3.55 µM
Cn1cc(/C=C(\C#N)C(=O)Nc2ccccc2O)c2ccccc21	inconclusive: 17.8 µM [inhibitor, partial curve, poor fit]
CCOC(=O)C1(Cc2ccccc2)CCN(Cc2ccc(C)s2)CC1	inconclusive: 35.5 µM [inhibitor, single point]
N#Cc1c(C(F)(F)F)cc(-c2cccs2)nc1SCC(=O)Nc1cccc(Cl)c1	inconclusive: 2.82 µM [inhibitor, full curve, poor fit]

The list continues.

| SMILES | Potency |
| --- | --- |
| CSCCC(NS(=O)(=O)c1ccc(Cl)cc1)C(=O)OCc1cccc(Cl)c1 (stereo not drawn) | inactive |
| Cc1ccc(C(=O)N/C(=C\c2ccc(Cl)cc2)C(=O)NC2CCCCC2)cc1 | inconclusive: 35.5 µM [inhibitor, single point] |
| O=C(COC(=O)c1cc(S(=O)(=O)N2CCOCC2)c(Cl)cc1Cl)NCc1ccco1 | inconclusive: 11.2 µM [inhibitor, partial curve, poor fit] |
| CS(=O)(=O)N(CC(=O)N1CCc2ccccc2C1)c1ccccc1F | inconclusive: 5.62 µM [inhibitor, single point] |
| Cc1ccc(Cl)cc1N1CCN(S(=O)(=O)c2ccc3c(c2)NC(=O)C(C)C(=O)N3)CC1 (stereo not drawn) | inconclusive: 35.5 µM [inhibitor, single point] |
| COc1ccccc1NC(=O)C1=C(C)Nc2c(C(=O)Nc3cccc(C)c3)cnn2C1c1ccccc1Cl (stereo not drawn) | inactive |
| COc1ccc(NC(=O)c2ccc(NC(=O)c3nc4nc(C)cc(C)n4n3)cc2)cc1 | inconclusive: 25.1 µM [inhibitor, single point] |
| CCOc1ccc(Br)cc1C(=O)Nc1ccc(C(=O)NCC(C)C)cc1 | inconclusive: 2.51 µM [inhibitor, full curve, poor fit] |
| Cc1[nH]c2ccccc2c1C1=NNC(=Nc2ccc(F)cc2)SC1 | inactive |
| NC(=O)CC(NC(=O)c1ccc(Br)cc1)c1ccc(N2CCC(Cc3ccccc3)CC2)c([N+](=O)[O-])c1 (stereo not drawn) | inconclusive: 35.5 µM [inhibitor, single point] |
| Cn1cc(Cl)c(/C=C(\C#N)S(=O)(=O)c2ccccc2)n1 | inconclusive: 17.8 µM [inhibitor, single point] |
| CCCc1cc(=O)[nH]c(-n2[nH]c3c(c2=O)CCCC3)n1 | inconclusive: 11.2 µM [inhibitor, partial curve, poor fit] |
| Clc1cc2cccnc2c2ncccc12 | inconclusive: 2.82 µM [inhibitor, partial curve, poor fit] |
| N#CC(C#N)=c1ccc2c(c1)N1C3=C(CCCC3)CC3CCCCC31N=2 (stereo not drawn) | inconclusive: 35.5 µM [inhibitor, single point] |
| Cc1cc2c(cc1S(=O)(=O)N1CCOCC1)NC(=O)CO2 | inconclusive: 3.55 µM [inhibitor, single point] |
| COc1ccccc1NC(=O)Nc1nc(CC(=O)NCc2ccccn2)cs1 | inconclusive: 10 µM [inhibitor, partial curve, poor fit] |
| COCC(C)NC(=O)/C(=C/c1ccccc1)c1ccccc1 (stereo not drawn) | inconclusive: 6.31 µM [inhibitor, single point] |
| CC(C)(C)C1CCc2nc(NC(=O)Cc3ccccc3)sc2C1 (stereo not drawn) | inconclusive: 15.8 µM [inhibitor, single point] |
| Oc1ccc(NCc2ccccc2OCc2ccc(Cl)cc2)cc1 | inactive |
| NNC(=O)COc1ccc2oc3c(c2c1)CCCC3 | inactive |
| O=C1CN(C(=O)COc2ccc(Cl)cc2Cl)C(c2ccccc2)c2cc(F)ccc2N1 (stereo not drawn) | inactive |
